# In PubChem BioAssay AID328 (DTP/NCI, 2004):
# The list shows only some results of the screen, not a fair sample: it gathers tests that were run many times, whatever their T/C, doses with no T/C, and many T/C values between a quarter and a half above the control. Other doses and runs of a compound stand elsewhere. T/C is the treated group as % of the vehicle group. Some doses have a count of surviving animals in place of a T/C: the source files T/C as zero there, which appears to mark a toxic dose or a test without result, not a measured value. Some doses without a T/C left all or most animals alive at the check, yet need not have been tolerated: the source hardly ever lists a survival T/C far under the control, and the zero likely stands for such cases as well. Survivors were counted at the toxicity check, usually on the fifth day, unless a day is given; later deaths do not show. Schedules are NCI's codes, taken here to give the interval after Q, in days (D) or hours (H), and the number of doses after X. Where survival is the endpoint, the PubChem record calls one and a half times the control and up active, and a quarter to a half above the control has no call in these data; cut-offs in other NCI protocols can differ. Additions like (4×) stand for listed records that agree. Some T/C values are followed by the survivors on the day toxicity was checked, most often the fifth; where none is given, no animal had died by that day. Some entries hold several experiments; the values are given in rising order.
# Tested on: BDF1 mice, P388 leukemia ip, median survival T/C
# Test: NCI In Vivo Anticancer Drug Screen. Data for tumor model P388 Leukemia (intraperitoneal) in B6D2F1 (BDF1) mice
# Conditions: T/C endpoint: median survival time, higher T/C = longer survival
# Procedure, shortened: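 T/C = treated-group survival ÷ vehicle-control survival; tumour transplanted into mice before dosing.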
# [1] = dose: 50.0 mg/kg/injection, schedule: Q01DX009 (ip), vehicle: Klucel (hydroxypropylcellulose) (HPC)
# [2] = dose: 75.0 mg/kg/injection, schedule: Q01DX010 (ip), vehicle: water
smiles,measurement,setting,value
O=P1(N(CCCl)CCCl)NCCCO1 (stereo unspecified),T/C,"dose: 50.0 mg/kg/injection, schedule: Q01DX005 (ip), vehicle: Klucel (hydroxypropylcellulose) (HPC), evaluated on day 35",335 % of control
same,survivor count,"dose: 50.0 mg/kg/injection, schedule: Q01DX005 (ip), vehicle: Klucel (hydroxypropylcellulose) (HPC)",3 of 3
same,T/C,[1],"93, 95, 97, 105, 120, 122, 124, 126, 132, 134, 135, 138, 153, 160, 168, 188, 191, 203, 221, 232, 233, 241, 243, 245, 249, 255, 256, 263, 264, 267, 270, 272, 288 % of control"
same,survivor count,[1],3 of 3
same,T/C,"dose: 50.0 mg/kg/injection, schedule: Q04DX002 (ip), vehicle: Klucel (hydroxypropylcellulose) (HPC), evaluated on day 30","134, 151, 193, 198, 201, 202, 204, 205, 206, 214, 218 (2×), 220 (2×), 228 (2×), 238, 242, 247 (2×), 250 (2×), 252, 253, 259, 262, 263, 275, 291 (3×), 300, 305 % of control"
same,T/C,"dose: 50.0 mg/kg/injection, schedule: Q04DX002 (ip), vehicle: Klucel (hydroxypropylcellulose) (HPC), evaluated on day 35",241 % of control
same,T/C,"dose: 50.0 mg/kg/injection, schedule: Q04DX003 (ip), vehicle: Klucel (hydroxypropylcellulose) (HPC), evaluated on day 30","86, 99, 105, 121, 127, 131 [4 of 6 alive], 139 [5 of 6 alive], 140, 150, 151, 153, 157, 163, 166, 173, 209, 222, 223 (2×), 229 (2×), 232, 238 [2 of 3 alive], 243, 247, 253, 254, 258, 270, 272, 279, 280, 287 % of control"
same,T/C,"dose: 50.0 mg/kg/injection, schedule: Q04DX003 (ip), vehicle: Klucel (hydroxypropylcellulose) (HPC), evaluated on day 35",111 [2 of 3 alive] and 223 % of control
same,survivor count,"dose: 50.0 mg/kg/injection, schedule: Q04DX003 (ip), vehicle: Klucel (hydroxypropylcellulose) (HPC)",3 of 3
same,T/C,"dose: 60.0 mg/kg/injection, schedule: Q01DX010 (ip), vehicle: water","90, 95, 104, 115, 130 % of control"
same,T/C,"dose: 67.0 mg/kg/injection, schedule: Q04DX003 (ip), vehicle: saline, evaluated on day 5","112, 120, 201, 208, 268, 287, 302 % of control"
same,T/C,"dose: 67.0 mg/kg/injection, schedule: Q04DX003 (ip), vehicle: saline, evaluated on day 60","112, 120, 201, 208, 268, 287, 302 % of control"
same,T/C,"dose: 75.0 mg/kg/injection, schedule: Q01DX001 (ip), vehicle: saline, evaluated on day 5",213 % of control
same,T/C,"dose: 75.0 mg/kg/injection, schedule: Q01DX001 (ip), vehicle: saline, evaluated on day 34",151 % of control
same,T/C,"dose: 75.0 mg/kg/injection, schedule: Q01DX001 (ip), vehicle: saline, evaluated on day 46",238 % of control
same,T/C,"dose: 75.0 mg/kg/injection, schedule: Q01DX001 (ip), vehicle: saline, evaluated on day 60",213 % of control
same,T/C,[2],"90, 115, 120, 130 % of control"
same,survivor count,[2],5 of 6
same,T/C,"dose: 80.0 mg/kg/injection, schedule: Q01DX005 (ip), vehicle: saline, evaluated on day 30",90 and 283 % of control
same,T/C,"dose: 80.0 mg/kg/injection, schedule: Q01DX005 (ip), vehicle: saline, evaluated on day 35",343 % of control (2×)
same,T/C,"dose: 80.0 mg/kg/injection, schedule: Q01DX005 (ip), vehicle: saline, evaluated on day 40",396 % of control
same,survivor count,"dose: 80.0 mg/kg/injection, schedule: Q01DX005 (ip), vehicle: saline",6 of 6
same,T/C,"dose: 80.0 mg/kg/injection, schedule: Q01DX009 (ip), vehicle: saline, evaluated on day 30",94 % of control
same,T/C,"dose: 80.0 mg/kg/injection, schedule: Q01DX009 (ip), vehicle: saline, evaluated on day 35",235 % of control (2×)
same,T/C,"dose: 80.0 mg/kg/injection, schedule: Q01DX009 (ip), vehicle: saline, evaluated on day 40",89 % of control
same,survivor count,"dose: 80.0 mg/kg/injection, schedule: Q01DX009 (ip), vehicle: saline",6 of 6
same,T/C,"dose: 100.0 mg/kg/injection, schedule: Q01DX001 (ip), vehicle: Klucel (hydroxypropylcellulose) (HPC), evaluated on day 30","98, 110, 165, 181, 182, 185, 195 (2×), 198, 200, 208, 221, 222, 229, 234, 237, 241, 242, 245 (2×), 252 (3×), 258, 262, 267, 271, 275, 275 % of control [5 of 6 alive]"
same,T/C,"dose: 100.0 mg/kg/injection, schedule: Q01DX001 (ip), vehicle: Klucel (hydroxypropylcellulose) (HPC), evaluated on day 35",267 and 281 % of control
same,survivor count,"dose: 100.0 mg/kg/injection, schedule: Q01DX001 (ip), vehicle: Klucel (hydroxypropylcellulose) (HPC)",3 of 3
same,T/C,"dose: 100.0 mg/kg/injection, schedule: Q01DX001 (ip), vehicle: saline, evaluated on day 30","168, 175, 200, 250, 262 % of control"
same,T/C,"dose: 100.0 mg/kg/injection, schedule: Q01DX001 (ip), vehicle: saline, evaluated on day 35",213 and 228 % of control
same,T/C,"dose: 100.0 mg/kg/injection, schedule: Q01DX001 (ip), vehicle: saline, evaluated on day 40",217 % of control
same,T/C,"dose: 100.0 mg/kg/injection, schedule: Q01DX001 (ip), vehicle: saline, evaluated on day 60",389 % of control
same,survivor count,"dose: 100.0 mg/kg/injection, schedule: Q01DX001 (ip), vehicle: saline",10 of 10
same,T/C,"dose: 100.0 mg/kg/injection, schedule: Q01DX005 (ip), vehicle: Klucel (hydroxypropylcellulose) (HPC), evaluated on day 30","87, 91, 92, 94, 96, 100, 112, 115, 120, 128, 140, 150, 157, 200, 211, 223, 241, 243, 250, 256, 266, 271, 272 (2×), 275 % of control"
same,T/C,"dose: 100.0 mg/kg/injection, schedule: Q01DX005 (ip), vehicle: Klucel (hydroxypropylcellulose) (HPC), evaluated on day 35",335 % of control
